# From paper doi:10.1101/825018
# Amino acid sequences for entries named in this document (tags omitted). A change or cut given only in a name is not applied to a line headed by its entry. Residues count along the entry.
# UniProt P60852: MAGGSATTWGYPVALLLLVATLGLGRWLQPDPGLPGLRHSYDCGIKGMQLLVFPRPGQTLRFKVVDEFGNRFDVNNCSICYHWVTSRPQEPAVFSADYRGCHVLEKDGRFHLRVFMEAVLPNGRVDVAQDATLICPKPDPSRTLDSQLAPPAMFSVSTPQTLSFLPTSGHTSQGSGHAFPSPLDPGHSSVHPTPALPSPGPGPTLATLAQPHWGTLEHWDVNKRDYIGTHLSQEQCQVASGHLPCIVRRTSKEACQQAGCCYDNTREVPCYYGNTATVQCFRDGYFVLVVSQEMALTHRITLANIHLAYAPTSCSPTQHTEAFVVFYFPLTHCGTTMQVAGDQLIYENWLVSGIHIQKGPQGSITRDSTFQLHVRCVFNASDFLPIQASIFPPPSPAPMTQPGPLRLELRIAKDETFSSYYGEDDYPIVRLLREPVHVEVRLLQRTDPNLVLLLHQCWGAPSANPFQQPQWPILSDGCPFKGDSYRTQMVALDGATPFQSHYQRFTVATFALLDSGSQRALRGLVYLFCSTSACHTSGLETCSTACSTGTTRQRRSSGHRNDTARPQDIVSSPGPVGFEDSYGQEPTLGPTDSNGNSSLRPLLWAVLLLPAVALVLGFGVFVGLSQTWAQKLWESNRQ
# UniProt Q05996, residues 39-640: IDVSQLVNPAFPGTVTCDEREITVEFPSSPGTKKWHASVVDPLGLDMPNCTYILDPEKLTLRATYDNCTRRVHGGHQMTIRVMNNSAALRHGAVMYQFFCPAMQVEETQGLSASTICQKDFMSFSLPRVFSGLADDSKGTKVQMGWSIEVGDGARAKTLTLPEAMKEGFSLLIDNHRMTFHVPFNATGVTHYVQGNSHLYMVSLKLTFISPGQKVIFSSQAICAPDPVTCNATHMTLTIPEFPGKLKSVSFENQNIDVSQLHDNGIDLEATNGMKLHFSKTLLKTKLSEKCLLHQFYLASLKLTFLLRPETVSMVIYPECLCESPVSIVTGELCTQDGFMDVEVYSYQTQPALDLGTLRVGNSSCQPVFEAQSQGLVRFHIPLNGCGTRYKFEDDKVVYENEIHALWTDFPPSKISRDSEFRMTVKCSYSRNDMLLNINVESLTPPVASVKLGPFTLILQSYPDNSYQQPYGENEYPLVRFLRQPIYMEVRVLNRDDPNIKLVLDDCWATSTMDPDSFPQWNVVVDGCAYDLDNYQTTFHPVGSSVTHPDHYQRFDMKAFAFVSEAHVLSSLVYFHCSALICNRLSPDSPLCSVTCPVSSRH
# No constants are given. Whether binding was seen depends on the method and setting. In cells and extracts the contact can be indirect. Binding can be weak; no strength is given. Where a sequence is shown, tags or fusion partners need not be part of it.
# B1: ZP3 (zona pellucida glycoprotein 3) (protein, UniProt P21754 23-350)
# chain: QPLWLLQGGASHPETSVQPVLVECQEATLMVMVSKDLFGTGKLIRAADLTLGPEACEPLVSMDTEDVVRFEVGLHECGNSMQVTDDALVYSTFLLHDPRPVGNLSIVRTNRAEIPIECRYPRQGNVSSQAILPTWLPFRTTVFSEEKLTFSLRLMEENWNAEKRSPTFHLGDAAHLQAEIHTGSHVPLRLFVDHCVATPTPDQNASPYHTIVDFHGCLVDGLTDASSAFKVPRPGPDTLQFTVDVFHFANDSRNMIYITCHLKVTLAEQDPDELNKACSFSKPSNSWFPVEGSADICQCCNKGDCGTPSHSRRQPHVMSQWSRSASRN
# B2: ZP4 (zona pellucida glycoprotein 4) (protein, UniProt Q12836 19-462)
# chain: GQHKPEAPDYSSVLHCGPWSFQFAVNLNQEATSPPVLIAWDNQGLLHELQNDSDCGTWIRKGPGSSVVLEATYSSCYVTEWDSHYIMPVGVEGAGAAEHKVVTERKLLKCPMDLLARDAPDTDWCDSIPARDRLPCAPSPISRGDCEGLGCCYSSEEVNSCYYGNTVTLHCTREGHFSIAVSRNVTSPPLLLDSVRLALRNDSACNPVMATQAFVLFQFPFTSCGTTRQITGDRAVYENELVATRDVKNGSRGSVTRDSIFRLHVSCSYSVSSNSLPINVQVFTLPPPFPETQPGPLTLELQIAKDKNYGSYYGVGDYPVVKLLRDPIYVEVSILHRTDPYLGLLLQQCWATPSTDPLSQPQWPILVKGCPYIGDNYQTQLIPVQKALDLPFPSHHQRFSIFTFSFVNPTVEKQALRGPVHLHCSVSVCQPAETPSCVVTCPDL
# Target: ZP1^MT (I390fs404X), truncated ZP1 (human) (UniProt P60852)
# Assay: co-IP
row,binding,Molecule
1,no binding,ZP2 (zona pellucida glycoprotein 2) (from UniProt Q05996 39-640)
2,binds,B1
3,binds,B2
